Data on one substance can be found in paper PMC9081910.

Chains of the proteins cited; added tags and fusions are not shown. Residues count along the entry.
UniProt P05067, residues 672-713: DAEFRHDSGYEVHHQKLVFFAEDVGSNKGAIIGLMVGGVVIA
UniProt Q9VFV9: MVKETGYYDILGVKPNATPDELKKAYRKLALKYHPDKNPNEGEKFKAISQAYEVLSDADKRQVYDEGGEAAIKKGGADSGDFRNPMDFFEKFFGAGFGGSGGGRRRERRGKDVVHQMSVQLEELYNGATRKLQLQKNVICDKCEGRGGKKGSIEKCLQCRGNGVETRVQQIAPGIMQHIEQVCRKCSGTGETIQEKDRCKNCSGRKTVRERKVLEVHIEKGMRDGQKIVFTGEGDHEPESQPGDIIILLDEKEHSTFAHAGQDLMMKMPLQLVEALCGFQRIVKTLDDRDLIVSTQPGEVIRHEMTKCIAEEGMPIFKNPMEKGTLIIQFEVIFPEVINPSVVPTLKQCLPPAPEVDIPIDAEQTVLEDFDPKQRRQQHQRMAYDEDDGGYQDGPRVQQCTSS

Results are given in words; binding and its absence hold for the method and conditions named. In cells and extracts the contact can be indirect. Some binding calls cover weakened binding; strength is not graded here.

The target of this assay is synthetic Abeta42 peptide (1‐42) (human) (UniProt P05067). Kind of assay: co-IP; 500 µM synthetic Abeta42 added to pre‐cleared fly head extract with Protein G magnetic beads coupled to antibody 6E10; 4 h, 4°C; Droj2 detected with DnaJA1‐specific antibody; only the target purified.

For “Droj2 (Drosophila DnaJ‐like‐2), fly homologue of Ydj1/DnaJA1 (from UniProt Q9VFV9 1-403)”, the binding result was “binds”.
